Measurements reported in PubChem BioAssay AID1159591 (NIAID, 2016).

- Test: 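TLR7/8 agonist R848 and Tnf expression after gene knock-down in mouse macrophages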
- System: mouse RAW264.7 G9 macrophage reporter clone (GFP-p65, Tnf promoter-mCherry)
- Knock-down reagent: single siRNA against mouse genes
- Timing: cells assayed 48 to 72 hours after siRNA transfection; R848 for 16 hours before fixing
- Conditions: R848 (TLR7/8 agonist) for 16 hours before fixation; dose not given
- Measured: 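After R848 for 16 hours, nuclear Tnf promoter mCherry signal imaged minus background, scaled per plate by median and MAD into robust z against non-targeting controls, averaged across replicates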
- Reading the numbers: mean Tnf reporter z-score: higher = stronger Tnf promoter reporter signal than controls
- Call rule: 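Absolute z above 1, 1.5, 2 or 2.5 scores 25 up to 100; no stated active threshold; in practice calls fall at roughly z ≤ -1.5 or z ≥ 1.5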
- Meaning of the calls: active = reporter clearly up or down; inactive = little reporter change
Shown is one part, drawn at random, of 756 reagents tested. In the full data, 130 (17%) got an active call. 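Active calls include both lower and higher Tnf reporter signal.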 Unmarked entries are inactive. The numbers tell different reagents against one gene apart. Not stated in the record: the amount of reagent.

Knock-down of Ube2n #1 gave: mean Tnf reporter z-score -0.0544.
After knock-down of Ube2n #2 the results were mean Tnf reporter z-score -1.02.
After knock-down of Ube2n #3 the results were mean Tnf reporter z-score -0.111.
Ube2n #4 scored mean Tnf reporter z-score -0.259.
Ube2n #5 showed mean Tnf reporter z-score -0.836.
After knock-down of Ube2n #6 the results were mean Tnf reporter z-score -0.421.
Knock-down of Tlr9 #1 resulted in: mean Tnf reporter z-score 0.168.
Silencing of Tlr9 #2 gave: mean Tnf reporter z-score -1.48.
Tlr9 #3 gave mean Tnf reporter z-score 0.988.
Knock-down of Tlr9 #4 gave: mean Tnf reporter z-score -0.119.
Depletion of Tlr9 #5 gave: mean Tnf reporter z-score -0.791.
Depletion of Tlr9 #6 resulted in: mean Tnf reporter z-score -0.84.
With knock-down of Irak2 #1 the results were mean Tnf reporter z-score -1.59 (active).
After knock-down of Irak2 #2 the results were mean Tnf reporter z-score -1.72 (active).
Silencing of Irak2 #3 resulted in: mean Tnf reporter z-score -2.35 (active).
Knock-down of Irak2 #4 came out at: mean Tnf reporter z-score -1.99 (active).
Silencing of Irak2 #5 came out at: mean Tnf reporter z-score -2.26 (active).
Irak2 #6 showed mean Tnf reporter z-score -2.02 (active).
Map2k3 #1 gave mean Tnf reporter z-score -0.791.
Against Map2k3 #2, the entry reads mean Tnf reporter z-score -0.825.
Silencing of Map2k3 #3 resulted in: mean Tnf reporter z-score 0.224.
Knock-down of Map2k3 #4 came out at: mean Tnf reporter z-score -1.19.
After knock-down of Map2k3 #5, the screen gave mean Tnf reporter z-score -0.937.
Map2k3 #6 showed mean Tnf reporter z-score 0.253.
Silencing of Ticam1 #1 resulted in: mean Tnf reporter z-score 0.331.
Knock-down of Ticam1 #2 resulted in: mean Tnf reporter z-score 0.858.
Against Ticam1 #3, the values are mean Tnf reporter z-score -0.287.
Against Ticam1 #4 the deposit lists mean Tnf reporter z-score -1.53 (active).
Against Ticam1 #5, the entry reads mean Tnf reporter z-score -0.482.
Silencing of Ticam1 #6 gave: mean Tnf reporter z-score -1.25.
Against Map2k7 #1 the deposit lists mean Tnf reporter z-score 1.26.
Depletion of Map2k7 #2 came out at: mean Tnf reporter z-score -0.104.
Map2k7 #3 scored mean Tnf reporter z-score -1.54 (active).
Against Map2k7 #4, the entry reads mean Tnf reporter z-score -0.917.
Against Map2k7 #5 the deposit lists mean Tnf reporter z-score -1.01.
Map2k7 #6 scored mean Tnf reporter z-score -0.791.

5 of these entries, set out differently:
Map2k3 #1
- mean Tnf reporter z-score: -0.791

Map2k3 #2
- mean Tnf reporter z-score: -0.825

Map2k3 #3
- mean Tnf reporter z-score: 0.224

Map2k3 #4
- mean Tnf reporter z-score: -1.19

Map2k3 #5
- mean Tnf reporter z-score: -0.937
